In PMC7473519:
These are yes or no findings as the source states them, for the method shown. In cells and extracts the contact can be indirect.

Biological target: minichromosome maintenance complex (MCM) (human (endogenous in HEK293T and U2OS)), P49736
Assay: co-IP; anti-MCM2 immunoprecipitation from lysate of nocodazole-arrested U2OS cells producing HA-Cdt1-WT, alone or mixed with lysate of the same cells growing asynchronously; blots for HA-Cdt1, MCM6, Geminin
Details: remark: other sources report otherwise

binding: no binding
B1: Geminin, O75496 1-209 (protein)
chain: MNPSMKQKQEEIKENIKNSSVPRRTLKMIQPSASGSLVGRENELSAGLSKRKHRNDHLTSTTSSPGVIVPESSENKNLGGVTQESFDLMIKENPSSQYWKEVAEKRRKALYEALKENEKLHKEIEQKDNEIARLKKENKELAEVAEHVQYMAELIERLNGEPLDNFESLDNQEFDSEEETVEDSLVEDSEIGTCAEGTVSSSTDAKPCI
